Measurements reported in PubChem BioAssay AID652243 (Drosophila RNAi Screening Center, 2013)
The screen tested about 24,000 reagents; shown is an unselected part of those that have a named target and a result. Over the whole deposit, 246 (1%) were called active. 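Plates not normalised; calls are printed but the firefly/Renilla ratio behind them is not deposited; fold cut for lowering reported inconsistently.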 Raw values vary from plate to plate and are shown uncorrected. A plus sign joins genes that one reagent is predicted to hit. The record does not give: the amount of reagent.

- Aim: 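Knock-downs that decrease or increase androgen receptor reporter signal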 (primary screen)
- System: Drosophila S2R+ cells
- Knock-down reagent: long dsRNA against Drosophila genes
- Time to read-out: 72 h (48 h, then 24 h hormone)
- Challenge: synthetic androgen R1881 at 10 nM for 24 h
- Detection: 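Per-well raw luminescence of the androgen-driven firefly reporter and of the Renilla control, two replicates each, without normalisation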
- Reading the numbers: firefly reporter light: higher = more light from androgen-responsive reporter; Renilla control light: higher = more constitutive control signal (cell number, transfection)
- Rule for the call: 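Across duplicate plates, a knock-down whose log firefly/Renilla ratio shifted a set fold down or up from the GFP/LacZ control mean was a hit; the downward cut appears as both 1.5 and 3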
- Meaning of the calls: active = hit: reporter lowered or raised; inactive = no hit

| gene | dsRNA | firefly reporter light, replicate 1 | firefly reporter light, replicate 2 | Renilla control light, replicate 1 | Renilla control light, replicate 2 | activity call |
| --- | --- | --- | --- | --- | --- | --- |
| Hem (HEM-protein) | DRSC11865 | 13899 | 35557 | 2.81e5 | 2.76e5 | inactive |
| Osi11 (Osiris 11) | DRSC12282 | 64446 | 81246 | 1.77e6 | 1.43e6 | inactive |
| SC35 (SR family splicing factor SC35) | DRSC03425 | 2.45e5 | 4.16e5 | 2.34e6 | 2.68e6 | inactive |
| SC35 (SR family splicing factor SC35) | DRSC25427 | 8.54e5 | 5.43e5 | 1.93e6 | 7.59e5 | inactive |
| SC35 (SR family splicing factor SC35) | DRSC27081 | 1.80e5 | 2.00e5 | 5.12e5 | 2.33e5 | inactive |
| SC35 (SR family splicing factor SC35) | DRSC39081 | 4.73e5 | 3.52e5 | 1.31e6 | 1.13e6 | inactive |
| CG34305 | DRSC38830 | 7.14e5 | 7.72e5 | 1.37e6 | 1.47e6 | inactive |
| CG1607 | DRSC15130 | 1.13e5 | 90179 | 8.29e5 | 6.55e5 | inactive |
| CG1607 | DRSC27010 | 4.97e5 | 4.39e5 | 7.21e5 | 7.91e5 | inactive |
| CG33271 | DRSC10583 | 8.63e5 | 4.79e5 | 2.68e6 | 1.70e6 | inactive |
| Met75Ca + Met75Cb | DRSC09549 | 3.43e5 | 3.45e5 | 1.04e6 | 9.01e5 | inactive |
| Met75Ca + Met75Cb | DRSC11221 | 3.10e5 | 2.50e5 | 3.19e6 | 3.06e6 | inactive |
| Ets65A (Ets at 65A) | DRSC09968 | 1.18e5 | 90640 | 1.76e6 | 1.52e6 | inactive |
| Ets65A (Ets at 65A) | DRSC10738 | 9.25e5 | 9.95e5 | 1.24e6 | 1.55e6 | inactive |
| Ets65A (Ets at 65A) | DRSC11164 | 1.19e6 | 1.01e6 | 1.28e6 | 1.76e6 | inactive |
| CG34236 | DRSC38647 | 9.90e5 | 1.00e6 | 2.67e6 | 2.84e6 | inactive |
| Rnf11 (Ring finger protein 11) | DRSC21574 | 5.04e5 | 5.93e5 | 2.52e6 | 3.06e6 | active |
| Rnf11 (Ring finger protein 11) | DRSC27053 | 3.83e5 | 2.32e5 | 6.25e5 | 6.08e5 | inactive |
| amon (amontillado) | DRSC13784 | 1.66e5 | 1.35e5 | 2.33e5 | 3.26e5 | inactive |
| amon (amontillado) | DRSC16900 | 2.52e5 | 2.47e5 | 3.03e6 | 3.36e6 | inactive |
| Synj (Synaptojanin) | DRSC04526 | 8.27e5 | 6.83e5 | 1.56e6 | 9.70e5 | inactive |
| Synj (Synaptojanin) | DRSC36874 | – | – | – | – | inactive |
| Synj (Synaptojanin) | DRSC36875 | – | – | – | – | inactive |
| Set | DRSC16861 | 80677 | 96353 | 6.59e5 | 8.05e5 | inactive |
| Hip1 (Huntingtin interacting protein 1) | DRSC09812 | 1.03e6 | 1.01e6 | 1.72e6 | 1.79e6 | inactive |

The list goes on, starting with the last 6 of the part before.
| gene | dsRNA | firefly reporter light, replicate 1 | firefly reporter light, replicate 2 | Renilla control light, replicate 1 | Renilla control light, replicate 2 | activity call |
| --- | --- | --- | --- | --- | --- | --- |
| amon (amontillado) | DRSC16900 | 2.52e5 | 2.47e5 | 3.03e6 | 3.36e6 | inactive |
| Synj (Synaptojanin) | DRSC04526 | 8.27e5 | 6.83e5 | 1.56e6 | 9.70e5 | inactive |
| Synj (Synaptojanin) | DRSC36874 | – | – | – | – | inactive |
| Synj (Synaptojanin) | DRSC36875 | – | – | – | – | inactive |
| Set | DRSC16861 | 80677 | 96353 | 6.59e5 | 8.05e5 | inactive |
| Hip1 (Huntingtin interacting protein 1) | DRSC09812 | 1.03e6 | 1.01e6 | 1.72e6 | 1.79e6 | inactive |
| nesd (nessun dorma) | DRSC02099 | 1.06e6 | 9.89e5 | 1.83e6 | 2.07e6 | inactive |
| nesd (nessun dorma) | DRSC27779 | 3.46e5 | 2.66e5 | 7.11e5 | 7.91e5 | inactive |
| CG13461 | DRSC10008 | 2.09e5 | 2.41e5 | 1.79e6 | 1.55e6 | inactive |
| CG13461 | DRSC24462 | 9.21e5 | 1.13e6 | 7.70e5 | 1.02e6 | inactive |
| CG3544 | DRSC00613 | 8.84e5 | 9.60e5 | 2.71e6 | 2.07e6 | inactive |
| CG3544 | DRSC39276 | – | – | – | – | inactive |
| CG3544 | DRSC39303 | – | – | – | – | inactive |
| Gs1 (Glutamine synthetase 1) | DRSC00753 | 1.43e6 | 9.34e5 | 5.24e6 | 2.57e6 | inactive |
| Gs1 (Glutamine synthetase 1) | DRSC28916 | 2.82e5 | 3.76e5 | 1.19e6 | 1.22e6 | inactive |
| Khc-73 (Kinesin heavy chain 73) | DRSC07449 | 9.92e5 | 1.56e6 | 1.82e6 | 2.36e6 | inactive |
| Khc-73 (Kinesin heavy chain 73) | DRSC26819 | 3.44e5 | 2.98e5 | 5.81e5 | 4.18e5 | inactive |
| Shab (Shaker cognate b) | DRSC08013 | 1.98e5 | 1.97e5 | 6.38e5 | 6.36e5 | inactive |
| Shab (Shaker cognate b) | DRSC08643 | 1.14e5 | 1.50e5 | 1.19e6 | 1.16e6 | inactive |
| Shab (Shaker cognate b) | DRSC08699 | 9.94e5 | 9.49e5 | 1.83e6 | 2.07e6 | inactive |
| Shab (Shaker cognate b) | DRSC28359 | 8.72e5 | 1.13e6 | 6.07e5 | 1.06e6 | inactive |
| fra (frazzled) | DRSC07621 | 2.44e5 | 2.74e5 | 1.44e6 | 1.13e6 | inactive |
| p130CAS | DRSC07862 | 1.50e5 | 1.74e5 | 2.29e5 | 2.81e5 | inactive |
| p130CAS | DRSC08257 | 1.59e6 | 1.61e6 | 2.47e6 | 1.95e6 | inactive |
| p130CAS | DRSC26616 | 2.63e5 | 2.84e5 | 6.45e5 | 6.76e5 | inactive |
| RpS2 (Ribosomal protein S2) | DRSC03614 | 8.06e5 | 5.10e5 | 1.46e6 | 1.09e6 | inactive |
| RpS2 (Ribosomal protein S2) | DRSC26760 | 1.88e5 | 2.20e5 | 7.04e5 | 5.59e5 | inactive |
| CG8611 | DRSC19340 | 1.20e5 | 1.08e5 | 5.71e5 | 7.59e5 | inactive |
| CG8611 | DRSC24619 | 8.42e5 | 7.69e5 | 9.21e5 | 1.01e6 | inactive |
| Rab32 | DRSC05146 | 1.52e5 | 2.81e5 | 4.82e5 | 4.80e5 | inactive |
| Rab32 | DRSC07522 | 1.44e6 | 1.64e6 | 1.58e6 | 1.58e6 | inactive |
| Rab32 | DRSC28156 | 3.35e5 | 3.20e5 | 1.10e6 | 1.03e6 | inactive |
| CG33107 | DRSC21898 | 6.92e5 | 5.12e5 | 1.67e6 | 1.47e6 | inactive |
| Osbp (Oxysterol binding protein) | DRSC16779 | 1.08e5 | 80419 | 7.66e5 | 5.15e5 | inactive |
| CG11842 | DRSC14400 | 1.83e5 | 1.12e5 | 1.11e6 | 6.59e5 | inactive |
| CG11842 | DRSC24924 | 1.22e6 | 1.17e6 | 1.21e6 | 1.19e6 | inactive |
| crn (crooked neck) | DRSC18184 | 3.00e5 | 2.09e5 | 3.72e6 | 3.09e6 | inactive |
| crn (crooked neck) | DRSC18185 | 2.13e5 | 1.88e5 | 3.12e6 | 2.54e6 | inactive |
| crn (crooked neck) | DRSC18755 | 1.21e5 | 76961 | 8.88e5 | 5.48e5 | inactive |
| CG3902 | DRSC10387 | 1.84e5 | 1.36e5 | 1.69e6 | 1.79e6 | inactive |
| CG3902 | DRSC24267 | 7.76e5 | 6.79e5 | 9.04e5 | 1.14e6 | inactive |
| CG33325 | DRSC12699 | 96757 | 1.73e5 | 1.27e5 | 1.01e5 | inactive |
| CG15082 | DRSC06513 | 1.00e5 | 1.17e5 | 1.22e6 | 1.67e6 | inactive |
| CG15082 | DRSC27197 | 5.22e5 | 3.63e5 | 6.50e5 | 5.98e5 | inactive |
| elm (ethanol sensitive with low memory) | DRSC12309 | 78184 | 98997 | 2.21e5 | 2.90e5 | inactive |
| CG14427 | DRSC17921 | 3.17e5 | 3.36e5 | 2.31e6 | 2.08e6 | inactive |
| CG14427 | DRSC29421 | 4.11e5 | 6.39e5 | 1.24e6 | 1.24e6 | inactive |
| CG8008 | DRSC07053 | 1.01e6 | 1.12e6 | 1.71e6 | 1.75e6 | inactive |
| CG8008 | DRSC27395 | 2.67e5 | 2.85e5 | 9.15e5 | 1.01e6 | inactive |
| CG8008 | DRSC39024 | 7.47e5 | 7.00e5 | 2.64e6 | 2.34e6 | inactive |
| CG14401 | DRSC02385 | 2.27e5 | 1.53e5 | 2.13e6 | 2.26e6 | inactive |
| CG14401 | DRSC21710 | 1.07e6 | 8.37e5 | 1.21e6 | 1.09e6 | inactive |
| CG14401 | DRSC24098 | 9.36e5 | 8.50e5 | 8.07e5 | 8.37e5 | inactive |
| Prosbeta5R1 (Proteasome beta5 subunit-related 1) | DRSC04581 | 1.14e5 | 1.44e5 | 8.59e5 | 1.06e6 | inactive |
| Prosbeta5R1 (Proteasome beta5 subunit-related 1) | DRSC29901 | 3.70e5 | 3.54e5 | 9.43e5 | 8.78e5 | inactive |
